The values below come from PMC12715500.

Chains of the proteins cited; added tags and fusions are not shown.
UniProt Q9Z2E1: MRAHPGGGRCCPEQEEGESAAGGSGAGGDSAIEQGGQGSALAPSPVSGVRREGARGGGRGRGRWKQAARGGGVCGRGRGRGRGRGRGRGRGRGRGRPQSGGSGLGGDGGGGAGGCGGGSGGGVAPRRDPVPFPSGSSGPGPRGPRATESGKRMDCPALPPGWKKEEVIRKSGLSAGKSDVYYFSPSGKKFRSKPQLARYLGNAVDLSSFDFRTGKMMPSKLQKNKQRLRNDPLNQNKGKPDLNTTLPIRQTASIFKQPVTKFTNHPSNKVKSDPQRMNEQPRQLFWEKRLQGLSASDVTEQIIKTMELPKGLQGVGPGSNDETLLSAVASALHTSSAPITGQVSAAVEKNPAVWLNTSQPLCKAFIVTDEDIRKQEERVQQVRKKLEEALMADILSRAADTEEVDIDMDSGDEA
UniProt Q5SVQ0: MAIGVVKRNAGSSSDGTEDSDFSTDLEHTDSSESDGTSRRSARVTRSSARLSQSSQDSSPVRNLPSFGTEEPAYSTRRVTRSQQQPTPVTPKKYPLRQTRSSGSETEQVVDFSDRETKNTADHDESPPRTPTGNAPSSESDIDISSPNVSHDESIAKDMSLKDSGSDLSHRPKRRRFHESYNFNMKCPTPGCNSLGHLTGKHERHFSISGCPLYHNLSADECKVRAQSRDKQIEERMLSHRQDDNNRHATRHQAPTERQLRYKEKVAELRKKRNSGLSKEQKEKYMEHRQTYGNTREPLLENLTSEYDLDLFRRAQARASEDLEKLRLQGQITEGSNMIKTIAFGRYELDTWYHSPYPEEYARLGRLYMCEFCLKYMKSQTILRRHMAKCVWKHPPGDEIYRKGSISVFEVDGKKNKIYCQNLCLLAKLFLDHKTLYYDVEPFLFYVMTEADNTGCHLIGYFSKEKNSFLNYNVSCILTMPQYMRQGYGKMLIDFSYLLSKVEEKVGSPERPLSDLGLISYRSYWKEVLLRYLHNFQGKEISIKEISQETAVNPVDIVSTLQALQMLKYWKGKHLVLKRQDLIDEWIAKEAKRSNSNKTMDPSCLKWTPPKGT

No constants are given. Whether binding was seen depends on the method and setting. Binding seen in cells or lysates may run through a third protein. Some binding calls cover weakened binding; strength is not graded here. Where a sequence is shown, tags or fusion partners need not be part of it.

For the test, the target named is GFP-tagged MBD2a (UniProt Q9Z2E1). As to the kind of experiment: co-IP; HEK cells co-transfected with GFP-tagged MBD2 isoform and RFP-tagged Hdac11 or Kat7; lysis in 20 mM Tris-HCl pH 8, 250 mM NaCl, 0.4% NP-40; GFP-binder beads 2 h at 4°C; washes with 150 mM NaCl; western blot with anti-RFP.

Take “RFP-tagged Kat7 (from UniProt Q5SVQ0 1-613) (enzyme)”: the binding entry is on record as “no binding”.

B1: RFP-tagged Hdac11 (enzyme, UniProt Q91WA3 1-347)
chain: MPHATQLYQHVPEKRWPIVYSPRYNITFMGLEKLHPFDAGKWGKVINFLKEEKLLSDGMLVEAREASEEDLLVVHTRRYLNELKWSFVVATITEIPPVIFLPNFLVQRKVLRPLRTQTGGTIMAGKLAVERGWAINVGGGFHHCSSDRGGGFCAYADITLAIKFLFERVEGISRATIIDLDAHQGNGHERDFMGDKRVYIMDVYNRHIYPGDRFAKEAIRRKVELEWGTEDEEYLEKVERNVRRSLQEHLPDVVVYNAGTDVLEGDRLGGLSISPAGIVKRDEVVFRVVRAHDIPILMVTSGGYQKRTARIIADSILNLHDLGLIGPEFPCVSAQNSGIPLLSCAVP
On to B1, for which the binding entry is on record as “binds”.
